Like-named read-outs stand apart in the source and are kept apart here. Results are given in words; binding and its absence hold for the method and conditions named. Binding seen in cells or lysates may run through a third protein. Some entries that bind do so weakly or less than the wild type.
Experiments:
[1] = biological target: Nr5a2 (orphan nuclear receptor NR5A2) (mouse (endogenous in pancreas)) (UniProt P45448); test: co-IP
[2] = biological target: Nr5a2 (orphan nuclear receptor NR5A2) (mouse (endogenous in pancreas)) (UniProt P45448); test: co-IP; remark: listed apart in the source

By UniProt entry, the sequences of proteins in these tests, tags left out.
UniProt P45448: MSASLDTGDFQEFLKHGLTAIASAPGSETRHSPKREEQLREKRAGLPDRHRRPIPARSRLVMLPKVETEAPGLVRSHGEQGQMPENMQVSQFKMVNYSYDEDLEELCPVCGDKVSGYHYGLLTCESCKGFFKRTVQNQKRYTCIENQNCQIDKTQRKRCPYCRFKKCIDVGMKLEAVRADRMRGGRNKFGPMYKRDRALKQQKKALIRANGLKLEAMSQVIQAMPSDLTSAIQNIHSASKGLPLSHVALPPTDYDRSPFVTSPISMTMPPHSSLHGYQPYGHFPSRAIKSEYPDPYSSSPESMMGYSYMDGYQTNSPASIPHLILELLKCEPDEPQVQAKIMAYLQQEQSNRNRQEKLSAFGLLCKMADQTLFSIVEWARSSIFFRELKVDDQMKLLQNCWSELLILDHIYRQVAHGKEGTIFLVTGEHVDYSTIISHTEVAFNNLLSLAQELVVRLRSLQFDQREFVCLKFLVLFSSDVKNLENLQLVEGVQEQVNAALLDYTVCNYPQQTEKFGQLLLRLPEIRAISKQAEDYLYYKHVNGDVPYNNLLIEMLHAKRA
UniProt P05627: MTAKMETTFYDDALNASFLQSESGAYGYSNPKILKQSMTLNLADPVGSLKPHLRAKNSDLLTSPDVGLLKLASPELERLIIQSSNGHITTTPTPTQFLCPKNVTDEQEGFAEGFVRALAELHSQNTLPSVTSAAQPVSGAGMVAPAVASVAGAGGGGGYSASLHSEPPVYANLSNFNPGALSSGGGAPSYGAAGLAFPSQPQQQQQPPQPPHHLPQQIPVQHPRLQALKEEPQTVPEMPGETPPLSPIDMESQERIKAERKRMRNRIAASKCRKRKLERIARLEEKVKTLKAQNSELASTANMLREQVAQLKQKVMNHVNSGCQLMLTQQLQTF

binding [1] | binding [2] | Molecule
binds |  | c-Jun (from UniProt P05627 1-334)
 | binds | Nr0b2/Shp1 (protein, UniProt Q62227 1-260) MSSGQSGVCPCQGSAGRPTILYALLSPSPRTRPVAPASHSHCLCQQQRPVRLCAPHRTCREALDVLAKTVAFLRNLPSFCHLPHEDQRRLLECCWGPLFLLGLAQDAVTFEVAEAPVPSILKKILLEEASSGTQGAQPSDRPQPSLAAVQWLQRCLESFWSLELGPKEYAYLKGTILFNPDVPGLRASCHIAHLQQEAHWALCEVLEPWYPASQGRLARILLMASTLKNIPGTLLVDLFFRPIMGDVDITELLEDMLLLR

From paper doi:10.1101/209411
